Laboratory results: PubChem BioAssay AID1224830 (NIAID, 2016)

- Aim: 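Regulators of TLR4 signalling towards TNF-alpha in macrophage-like cells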 (primary screen)
- Cell system: human THP-1 monocytic leukaemia cells, TNF dual-luciferase reporter clone, PMA-differentiated to macrophage-like cells
- Reagents: siRNA pool against human genes, 50 nM
- Timing: LPS for 4 h, given about 3 days after siRNA transfection
- Treatment: bacterial LPS (TLR4 ligand), 10 ng/ml
- Measurement: 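Ratio of firefly to renilla light, scaled to the plate median and expressed as a robust z-score per replicate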
- Reading the numbers: TNF reporter robust z-score: higher = stronger TNF reporter response to LPS
- Hit rule: 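a well is active when its z-score exceeds 2.8 or falls below -1.5; control wells carry no call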
This is one part, drawn at random, of about 18,000 reagents tested. About 2,900 of all reagents (16%) count as active. 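Calls are made per well; low scores hint the gene aids the LPS response, high scores that it dampens it.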 A number with no mark means an inactive call. Reagents against one gene are numbered here. Repeated entries: four replicate wells of each siRNA pool.

The first 2 records, to show the layout:
| Target gene | pool no. | TNF reporter robust z-score |
| --- | --- | --- |
| STT3B | 1 | 0.35 |
| STT3B | 1 | 0.84 |

Main list, repeating the preview:
| Target gene | pool no. | TNF reporter robust z-score |
| --- | --- | --- |
| STT3B | 1 | 0.35 |
| STT3B | 1 | 0.84 |
| STT3B | 1 | 0.63 |
| STT3B | 1 | 1.89 |
| TMEM171 | 1 | -0.63 |
| TMEM171 | 1 | -0.3 |
| TMEM171 | 1 | -1.13 |
| TMEM171 | 1 | -0.75 |
| SEPTIN1 | 1 | 1.71 |
| SEPTIN1 | 1 | 0.17 |
| SEPTIN1 | 1 | 1.25 |
| SEPTIN1 | 1 | 0.48 |
| POU3F3 | 1 | -0.61 |
| POU3F3 | 1 | -0.79 |
| POU3F3 | 1 | 0.12 |
| POU3F3 | 1 | -0.5 |
| DENND1B | 1 | 1.04 |
| DENND1B | 1 | 1.47 |
| DENND1B | 1 | 0.51 |
| DENND1B | 1 | -0.43 |
| DENND1B | 2 | 0.96 |
| DENND1B | 2 | 0.01 |
| DENND1B | 2 | 0.37 |
| DENND1B | 2 | -0.24 |
| LSM3 | 1 | -0.43 |
| LSM3 | 1 | 0.52 |
| LSM3 | 1 | 0.47 |
| LSM3 | 1 | -0.76 |
| SRD5A3 | 1 | -0.7 |
| SRD5A3 | 1 | -0.23 |
| SRD5A3 | 1 | -0.38 |
| SRD5A3 | 1 | 0.12 |
| TXK | 1 | 1.23 |
| TXK | 1 | 1.18 |
| TXK | 1 | 0.78 |
| TXK | 1 | 1.29 |
| TMEM121B | 1 | -1.06 |
| TMEM121B | 1 | -0.8 |
| TMEM121B | 1 | -1.68 (active) |
| TMEM121B | 1 | -0.87 |
| PROCR | 1 | -0.56 |
| PROCR | 1 | 0.24 |
| PROCR | 1 | -0.17 |
| PROCR | 1 | -0.98 |
| TP53RK | 1 | -0.77 |
| TP53RK | 1 | -0.33 |
| TP53RK | 1 | 0.03 |
| TP53RK | 1 | 0.01 |
| SLC12A2 | 1 | -0.8 |
| SLC12A2 | 1 | -0.58 |
| SLC12A2 | 1 | -0.61 |
| SLC12A2 | 1 | -0.11 |
| TASL | 1 | 0.56 |
| TASL | 1 | 0.16 |
| TASL | 1 | -0.36 |
| TASL | 1 | -0.32 |
| PSMC3IP | 1 | 0.04 |
| PSMC3IP | 1 | -0.33 |
| PSMC3IP | 1 | -1.22 |
| PSMC3IP | 1 | -0.2 |
| AGBL2 | 1 | 0.16 |
| AGBL2 | 1 | -1.25 |
| AGBL2 | 1 | -0.52 |
| AGBL2 | 1 | -1.35 |
| ADPRH | 1 | -1.1 |
| ADPRH | 1 | -1.24 |
| ADPRH | 1 | -1.19 |
| ADPRH | 1 | -0.72 |
| PCDHB12 | 1 | -0.99 |
| PCDHB12 | 1 | -0.44 |
| PCDHB12 | 1 | -0.72 |
| PCDHB12 | 1 | -0.73 |
| ZNF667 | 1 | -0.43 |
| ZNF667 | 1 | -0.5 |
| ZNF667 | 1 | -0.77 |
| ZNF667 | 1 | 0.02 |
| ADH4 | 1 | -0.87 |
| ADH4 | 1 | -0.91 |
| ADH4 | 1 | -0.83 |
| ADH4 | 1 | 0.01 |
| CRHR1 | 1 | 0.67 |
| CRHR1 | 1 | -0.11 |
| CRHR1 | 1 | 0.01 |
| CRHR1 | 1 | 1.61 |
| TRIM49 | 1 | 1.53 |
| TRIM49 | 1 | -2.36 (active) |
| TRIM49 | 1 | -0.86 |
| TRIM49 | 1 | 0.02 |
| FGF14 | 1 | -0.42 |
| FGF14 | 1 | 0.14 |
| FGF14 | 1 | -0.37 |
| FGF14 | 1 | -0.1 |
| GBP1 | 1 | -0.5 |
| GBP1 | 1 | -0.34 |
| GBP1 | 1 | -0.62 |
| GBP1 | 1 | -0.28 |
| ZFPM2 | 1 | -1.28 |
| ZFPM2 | 1 | -0.77 |
| ZFPM2 | 1 | -0.98 |
| ZFPM2 | 1 | 0.31 |
| RWDD3 | 1 | 0.08 |
| RWDD3 | 1 | -0.14 |
| RWDD3 | 1 | -0.35 |
| RWDD3 | 1 | 1.17 |
| CGRRF1 | 1 | -0.9 |
| CGRRF1 | 1 | 1.13 |
| CGRRF1 | 1 | -0.23 |
| CGRRF1 | 1 | 1.68 |
| C19orf44 | 1 | -0.63 |
| C19orf44 | 1 | -0.12 |
| C19orf44 | 1 | -0.32 |
